Patent US20240299321A1, “METHODS TO SENSITIZE CANCER CELLS AND STANDARDIZED SCREENING ASSAY FOR IMMUNOTHERAPY” (THE TRUSTEES OF INDIANA UNIVERSITY, priority 2020, published 2024)
For at least one compound, name, drawing or mass did not settle the structure.

Key:
[1] = test system: EO771 (Luc+OVA+) tumor organoids; test: Intra-tumor infiltration of T cells in tumor organoids; type: cell-based, mouse; details: 48 h treatment, then co-culture with OT-I T cells
Method: To evaluate intra-tumor infiltration of T cells, EO771 (Luc+OVA+) tumor organoids were treated with indicated drugs for 48 h, and then co-cultured with OT-I T cells. After co-culture for 48 h, the organoids with T cells inside or attached were dissociated by TrypLE Express (Thermo Fisher) into single cells and stained with APC/Cy7-conjugated anti-mouse CD8 (Biolegend) and SYTOX Blue reagent for 15 min. The CD8+ T cell proportions from tumor organoids were analyzed by flow cytometry.

EO771 tumors = test: EO771 orthotopic breast tumor model in immunocompetent C57BL/6 mice; type: in vivo; details: 20 mg kg-1 intraperitoneal, 3 times/week for 2 weeks
Method: T cell effector function analysis: We measured cytokine and cytolytic granule production (IFNγ, GZMB and TNFα) of CD8+ T cells from mouse tumor samples and tumor organoid-T cell co-culture. Briefly, CD8+ T cells were placed into the 24-well plate at 1×10^6 cells/well, stimulated with 1 μM ionomycin and 50 ng ml-1 phorbol 12-myristate 13-acetate (PMA) (Sigma-Aldrich) for 4 h, in the presence of 5 μg ml-1 Brefeldin A (BFA), with the purpose to amplify the expression of intracellular cytokines61. The cells were stained with APC/Cy7-conjugated anti-CD8a (Biolegend) for 15 min and then fixed by 4% PFA. […]
Immunohistochemistry (IHC) and Immunofluorescence (IF) analysis of tumor organoids: Tumor organoids were gently centrifuged at 100 rcf from organoid culture medium and then embedded in 2% agar. […] The fluorescence images were captured under a Leica DM4B microscope.
Animal studies: All animal experiments were performed in accordance with the National Institutes of Health's Animal Use Guidelines and protocols approved by the Animal Care and Use Committee of Indiana University School of Medicine. […] Tumors were measured in two dimensions using a manual caliper. Tumor volume was calculated using the following formula: V=0.5×length×width×width. Tumor volume was measured every 3 days. […] The tumor growth, volume and weight were analyzed. […]

CCOC(=O)Nc1cc(-c2ccc(C)c(NS(C)(=O)=O)c2)nn2c(C)nnc12 [bromosporine]
CD8+ T cell infiltration in the tumor organoids [1]: poor T cell infiltration
anti-tumor effect in animal experiments (EO771 tumors): no anti-tumor effect
